Results: patent US20230358677A1, “Reversible Excited-State Photoacids and Photobases as Dynamic Fluorescence Sensors of Protonic Species” (California Institute of Technology, priority 2022, published 2023)

Experiment: Time-resolved photoluminescence spectroscopy (excited-state lifetime)
Type: physicochemical
Details: for excited-state lifetime τo: near-neutral pH (NS—NH2 pH 7.32, APTS pH 6.3, EDANS pH 6.2), aqueous

Row | Compound | excited-state lifetime τo [ns] | excited-state lifetime (alkaline solution, pH 12.18) [ns]
1 | NCCNc1cccc2c(S(=O)(=O)[O-])cccc12.[Na+] [EDANS, 5-((2-aminoethyl)amino)naphthalene-1-sulfonic acid sodium salt] | 8.82 | –
2 | Nc1cc(S(=O)(=O)[O-])c2ccc3c(S(=O)(=O)[O-])cc(S(=O)(=O)[O-])c4ccc1c2c43.[Na+].[Na+].[Na+] [APTS, 8-aminopyrene-1,3,6-trisulfonic acid trisodium salt] | 3.88 | –
3 | Nc1cccc2c(S(=O)(=O)[O-])cccc12.[Na+] [NS—NH2, 5-aminonaphthalene-1-sulfonic acid sodium salt] | – | 2.57
